Reference: PMC9091212
These are yes or no findings as the source states them, for the method shown. In cells and extracts the contact can be indirect. Some results given as binding are weak or reduced against the parent protein; the word gives no strength.

The chains behind the UniProt entries cited, without tags or fusion partners.
UniProt P05556: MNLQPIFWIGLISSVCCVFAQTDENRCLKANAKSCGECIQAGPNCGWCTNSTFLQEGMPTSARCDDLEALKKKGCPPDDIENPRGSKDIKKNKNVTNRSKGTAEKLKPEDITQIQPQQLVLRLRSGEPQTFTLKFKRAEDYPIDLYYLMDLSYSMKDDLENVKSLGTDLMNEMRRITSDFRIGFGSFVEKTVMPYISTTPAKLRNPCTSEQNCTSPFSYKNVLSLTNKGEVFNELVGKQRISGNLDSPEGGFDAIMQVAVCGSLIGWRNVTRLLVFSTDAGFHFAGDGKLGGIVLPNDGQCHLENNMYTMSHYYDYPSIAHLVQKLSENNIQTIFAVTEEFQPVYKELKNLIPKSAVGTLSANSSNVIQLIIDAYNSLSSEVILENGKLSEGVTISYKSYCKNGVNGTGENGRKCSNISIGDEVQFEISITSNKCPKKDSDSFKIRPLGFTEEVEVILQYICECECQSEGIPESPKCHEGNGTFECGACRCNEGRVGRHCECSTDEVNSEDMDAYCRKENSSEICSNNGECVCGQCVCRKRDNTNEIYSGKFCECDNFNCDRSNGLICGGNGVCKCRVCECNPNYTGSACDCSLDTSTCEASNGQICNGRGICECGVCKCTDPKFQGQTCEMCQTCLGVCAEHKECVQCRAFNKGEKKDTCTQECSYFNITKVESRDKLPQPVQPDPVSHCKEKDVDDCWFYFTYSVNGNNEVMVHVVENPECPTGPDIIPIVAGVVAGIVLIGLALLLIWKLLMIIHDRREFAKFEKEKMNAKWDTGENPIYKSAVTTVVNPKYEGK
UniProt Q05397: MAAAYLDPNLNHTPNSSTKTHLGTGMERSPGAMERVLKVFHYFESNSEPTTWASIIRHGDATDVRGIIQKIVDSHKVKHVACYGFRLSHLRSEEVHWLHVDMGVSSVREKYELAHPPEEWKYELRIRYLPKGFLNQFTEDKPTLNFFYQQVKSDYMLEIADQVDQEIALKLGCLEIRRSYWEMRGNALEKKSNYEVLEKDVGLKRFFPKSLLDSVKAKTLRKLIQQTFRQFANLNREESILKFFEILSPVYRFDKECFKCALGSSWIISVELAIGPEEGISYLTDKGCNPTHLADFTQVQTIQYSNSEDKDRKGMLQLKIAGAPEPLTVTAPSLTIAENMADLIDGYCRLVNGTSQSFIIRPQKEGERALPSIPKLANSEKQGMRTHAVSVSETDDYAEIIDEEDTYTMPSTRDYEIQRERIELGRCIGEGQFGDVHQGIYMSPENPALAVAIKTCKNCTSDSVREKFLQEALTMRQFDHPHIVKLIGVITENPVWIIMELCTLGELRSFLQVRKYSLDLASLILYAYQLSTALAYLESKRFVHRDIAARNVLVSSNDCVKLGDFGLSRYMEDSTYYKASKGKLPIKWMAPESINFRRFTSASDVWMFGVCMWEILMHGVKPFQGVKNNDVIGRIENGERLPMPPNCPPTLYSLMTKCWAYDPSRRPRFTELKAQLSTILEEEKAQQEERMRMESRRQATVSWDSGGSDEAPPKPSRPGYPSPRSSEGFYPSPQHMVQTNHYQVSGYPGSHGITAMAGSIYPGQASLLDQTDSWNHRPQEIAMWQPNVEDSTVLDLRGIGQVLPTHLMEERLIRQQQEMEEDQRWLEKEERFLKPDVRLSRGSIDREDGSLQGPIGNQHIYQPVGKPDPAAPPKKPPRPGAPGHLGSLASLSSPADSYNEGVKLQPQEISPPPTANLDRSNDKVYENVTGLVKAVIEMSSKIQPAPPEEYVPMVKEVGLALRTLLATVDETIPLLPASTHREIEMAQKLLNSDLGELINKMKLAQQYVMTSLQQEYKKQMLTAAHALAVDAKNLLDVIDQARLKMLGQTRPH

Experiments:
[1] = target: integrin β1 (human (endogenous in MDA-MB-231)) (UniProt P05556); test: co-IP; IP of endogenous integrin β1 with western blotting of TGFβRI, and reverse IP of TGFβRI with western blotting of integrin β1, from MDA-MB-231 lysates; also from untreated cells (without TGFβ) and with FAK inhibitor treatment
[2] = target: focal adhesion kinase (FAK) (human (endogenous in MDA-MB-231)) (UniProt Q05397); test: co-IP; IP of endogenous FAK from lysates of MDA-MB-231 cells treated with vehicle or TGFβ (5 ng/mL, 2 h), or with vehicle or the FAKi VS-4718 (1 μM, 24 h); western blotting for FAK, TGFβRI and TGFβRII; lysis buffer 1% Triton X-100, 0.5% NP-40, 150 mM NaCl, 10 mM Tris pH 7.4; protein G agarose

B1: TGFβ receptor type I (TGFβRI) (receptor, UniProt P36897 34-503)
chain: LQCFCHLCTKDNFTCVTDGLCFVSVTETTDKVIHNSMCIAEIDLIPRDRPFVCAPSSKTGSVTTTYCCNQDHCNKIELPTTVKSSPGLGPVELAAVIAGPVCFVCISLMLMVYICHNRTVIHHRVPNEEDPSLDRPFISEGTTLKDLIYDMTTSGSGSGLPLLVQRTIARTIVLQESIGKGRFGEVWRGKWRGEEVAVKIFSSREERSWFREAEIYQTVMLRHENILGFIAADNKDNGTWTQLWLVSDYHEHGSLFDYLNRYTVTVEGMIKLALSTASGLAHLHMEIVGTQGKPAIAHRDLKSKNILVKKNGTCCIADLGLAVRHDSATDTIDIAPNHRVGTKRYMAPEVLDDSINMKHFESFKRADIYAMGLVFWEIARRCSIGGIHEDYQLPYYDLVPSDPSVEEMRKVVCEQKLRPNIPNRWQSCEALRVMAKIMRECWYANGAARLTALRIKKTLSQLSQQEGIKM
Q: B1 was tested. Which binding [1] did it give?
A: The binding was “binds”.

Q: And the binding [2]?
A: Its binding is “binds”.
